Laboratory results: PubChem BioAssay AID504444 (National Center for Advancing Translational Sciences (NCATS), 2011)
Hit rate of the full screen: of about 360,000 compounds, about 7,500 (2.1%) were called active. The inconclusive results got no clear call from the source; some entries with a clear call stand among them for comparison. The call rests on the fitted dose curve; in most records, active means well fitted inhibition curve with a large enough effect; inconclusive means small, poorly fitted or top-dose-only effect, or effect the other way; inactive means flat fitted curve, though single readings scatter. Potencies beside an inconclusive call are fits to weak or partial responses and may not hold up.

Experiment: Nrf2 qHTS screen for inhibitors; further: nearly all actives have a fitted effect of over 60% in size
Details: A549 ARE-Fluc reporter, luciferase luminescence, 18-24 h; activity change, negative = inhibition: at 46 µM (top of the series)
Outline: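 A549 ARE_Fluc cells (5000/well, 5% FBS OPTI-MEM) pre-incubated 2 h, then treated with compounds 18-24 h at 37C/5% CO2 in concentration-response. CellTiter-Fluor viability read first; BugLite luciferase luminescence after 15 min at room temperature gives Nrf2 activity.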
On the % scale 0 is the no-effect control and ±100 the full control effect; potency means the concentration at half of the fitted maximal effect.

SMILES | Potency | activity change, negative = inhibition
CCC(C)NC(=O)c1cc2c(=O)n(CC)c3ccccc3c2s1 (stereo not given) | inconclusive: 8.2 µM [falling, partial curve, poor fit] | –
Cn1cccc1/C=N/N1CCN(Cc2cccc3ccccc23)CC1 | – | inactive: -0.0775%
Cc1cccc(OCC(=O)N2CCC(c3ccccc3)C2)c1 (stereo not given) | inconclusive: 8.2 µM [activator, partial curve] | –
NC(=O)CSc1ccc2nnc(-c3ccncc3)n2n1 | – | inactive: 2.31%
C/C(=C1/SC(=S)N(CCC(=O)O)C1=O)c1ccc(O)cc1 | – | inactive: 8.13%
N#CCC(=O)N/N=C/c1ccc(Sc2nc3ccccc3s2)o1 | inconclusive: 0.731 µM [falling, full curve, poor fit] | –
CCN(Cc1cc(=O)n2ccsc2n1)c1cccc2ccccc12 | inconclusive: 23.1 µM [falling, single point] | –
Cc1cccc(NC(=O)Nc2ccc3c(c2)OCO3)n1 | inconclusive: 11.6 µM [activator, partial curve] | –
COc1cc(C(=O)Nc2cccc(S(=O)(=O)N3CCCC3)c2)c([N+](=O)[O-])cc1OC | – | inactive: -0.999%
CCOc1ccc(-c2nn(CC(=O)NC3CCCCC3)c3c2cnc2ccc(C)cc23)cc1 | – | inactive: -0.994%
c1ccc(Sc2nc(N3CCCCC3)nc(N3CCCCC3)n2)nc1 | inconclusive: 29.1 µM [falling, single point] | –
Cc1ccc(Cl)cc1N1CCN(C(=O)Cn2ccc3ccccc3c2=O)CC1 | inconclusive: 16.4 µM [falling, partial curve, poor fit] | –
Cc1ccc(C(=O)NCCc2ccc(Cl)cc2)cc1-n1c(C)nc2cccnc21 | – | inactive: -24.3%
CC1(C)Oc2ccc(C(=O)N3CCOCC3)cc2N(CC(=O)N2CCOCC2)C1=O | inconclusive: 0.92 µM [activator, partial curve, poor fit] | –
COc1cc(-c2noc(-c3ccc(NCc4ccccc4)c([N+](=O)[O-])c3)n2)cc(OC)c1OC | inconclusive: 29.1 µM [falling, single point] | –
Fc1ccc2nc(Nc3nc4c(F)cc(F)cc4s3)sc2c1 | inconclusive: 29.1 µM [falling, single point] | –
O=C(Cn1nnc2ccccc21)C1CC1 | inconclusive: 5.17 µM [falling, partial curve, poor fit] | –
O=C(Nc1ccn(-c2ccccc2)n1)c1ccccc1Br | inconclusive: 25.9 µM [activator, partial curve] | –
COc1ccc(C(CNC(=O)c2cccc(S(=O)(=O)N3CCOCC3)c2)N2CCOCC2)cc1 (stereo not given) | – | inactive: -2.95%
CCN(CC)c1nc(SCCOC(=O)Nc2ccccc2)nc(N(CC)CC)n1 | active: 20.6 µM | –
Cc1[nH]n(-c2ccccc2)c(=O)c1C=Nc1cccc2cccnc12 | inconclusive: 29.1 µM [falling, single point] | –
COC(=O)c1cc(NC(=O)CN(c2cccc(OC)c2)S(=O)(=O)c2ccccc2)ccc1Cl | active: 23.1 µM | –

Of the compounds above, eleven contain a carbonyl joined to an NH by a bond outside any ring.
SMILES | Potency | activity change, negative = inhibition
CCC(C)NC(=O)c1cc2c(=O)n(CC)c3ccccc3c2s1 (stereo not given) | inconclusive: 8.2 µM [falling, partial curve, poor fit] | –
NC(=O)CSc1ccc2nnc(-c3ccncc3)n2n1 | – | inactive: 2.31%
N#CCC(=O)N/N=C/c1ccc(Sc2nc3ccccc3s2)o1 | inconclusive: 0.731 µM [falling, full curve, poor fit] | –
Cc1cccc(NC(=O)Nc2ccc3c(c2)OCO3)n1 | inconclusive: 11.6 µM [activator, partial curve] | –
COc1cc(C(=O)Nc2cccc(S(=O)(=O)N3CCCC3)c2)c([N+](=O)[O-])cc1OC | – | inactive: -0.999%
CCOc1ccc(-c2nn(CC(=O)NC3CCCCC3)c3c2cnc2ccc(C)cc23)cc1 | – | inactive: -0.994%
Cc1ccc(C(=O)NCCc2ccc(Cl)cc2)cc1-n1c(C)nc2cccnc21 | – | inactive: -24.3%
O=C(Nc1ccn(-c2ccccc2)n1)c1ccccc1Br | inconclusive: 25.9 µM [activator, partial curve] | –
COc1ccc(C(CNC(=O)c2cccc(S(=O)(=O)N3CCOCC3)c2)N2CCOCC2)cc1 (stereo not given) | – | inactive: -2.95%
CCN(CC)c1nc(SCCOC(=O)Nc2ccccc2)nc(N(CC)CC)n1 | active: 20.6 µM | –
COC(=O)c1cc(NC(=O)CN(c2cccc(OC)c2)S(=O)(=O)c2ccccc2)ccc1Cl | active: 23.1 µM | –

Carrying on:

SMILES | Potency | activity change, negative = inhibition
N#Cc1sc(NCc2ccccc2)nc1Cl | inconclusive: 8.2 µM [activator, partial curve] | –
Clc1ccccc1CONc1ncnc2nonc12 | inconclusive: 6.51 µM [activator, full curve] | –
CCOC(=O)C1CCN(C(=O)c2cc3c(ccc4ccccc43)o2)CC1 | inconclusive: 8.2 µM [activator, partial curve, poor fit] | –
C/C(=N\OC(=O)c1cccc(C)c1)c1sc(-c2ccccc2)nc1C | inconclusive: 18.4 µM [activator, partial curve] | –
Cc1ccc(NC(=O)CCS(=O)(=O)c2ccccc2)cc1S(=O)(=O)N1CCCCCC1 | inconclusive: 10.3 µM [falling, partial curve] | –
Fc1cccc(NC(=S)NNc2c3ccccc3nc3ccccc23)c1 | inconclusive: 29.1 µM [falling, single point] | –
Cc1cc(Oc2ccc(C#N)cc2)nc(NCc2ccccc2)n1 | active: 16.4 µM | –
CCCc1ccc(C(C)NC(=S)NC2CCCCC2)cc1 (stereo not given) | – | inactive: -82.3%
O=C(NCc1ccccn1)Nc1ccc(Br)cc1 | inconclusive: 8.2 µM [activator, partial curve] | –
COc1cccc(NC(=O)c2cccnc2)c1 | inconclusive: 4.61 µM [activator, partial curve, poor fit] | –
CN(C)C(=O)c1ccc(-c2n[nH]c(=O)c3ccccc23)cc1 | inconclusive: 2.59 µM [falling, full curve, poor fit] | –
COc1cccc(C2CC(c3cccc(NS(C)(=O)=O)c3)=NN2C(=O)c2ccccc2)c1OC (stereo not given) | inconclusive: 13 µM [falling, partial curve, poor fit] | –
CCN(CC)CCOC(=O)c1ccc(NC(=O)Cn2ncc3c([nH]c4ccc(C)cc43)c2=O)cc1 | – | inactive: -3.85%
c1ccc(CN(Cc2ccccc2)c2c3c(nc4ncnn24)CCC3)cc1 | inconclusive: 25.9 µM [falling, partial curve, poor fit] | –
COC(=O)c1c(C)[nH]c(C(=O)OCC(=O)c2c(N)n(CC(C)C)c(=O)n(C)c2=O)c1C | active: 14.6 µM | –
Cc1ccc(-n2nc(C)c(C(=O)NCCCN3CCN(c4ccc(F)cc4)CC3)c2-n2cccc2)cc1 | inconclusive: 16.4 µM [falling, partial curve, poor fit] | –
COc1cc(C(=O)NCC(c2cccs2)N2CCOCC2)cc(Br)c1OCc1ccccc1 (stereo not given) | inconclusive: 5.17 µM [falling, partial curve, poor fit] | –
CCC1S/C(=N/C(=O)NC2CCCCC2)NC1=O (stereo not given) | inconclusive: 8.2 µM [activator, partial curve] | –
Cc1nc2ccccc2c2oc(C(=O)NCc3ccccn3)cc12 | inconclusive: 29.1 µM [falling, single point] | –
Cc1ccc(OCC(=O)N2CCCCCC2)c(C)c1 | inconclusive: 29.1 µM [activator, single point] | –
Cc1ccc(C)c(Cn2c3ccccc3c3cnn(CC(=O)NCCCc4ccccc4)c(=O)c32)c1 | inconclusive: 0.13 µM [activator, full curve, poor fit] | –
COc1ccc(-c2nc3ccccc3nc2-c2ccc(OC)c(OC)c2)cc1OC | inconclusive: 18.4 µM [falling, partial curve, poor fit] | –

SMILES | Potency | activity change, negative = inhibition
O=C(NCCCNC(=O)c1ccccn1)c1ccc(Cl)cc1 | inconclusive: 14.6 µM [falling, partial curve, poor fit] | –
CC(C)n1c(O)c(/C=C2\C=NN=C2c2ccccc2)sc1=S | inconclusive: 25.9 µM [falling, partial curve, poor fit] | –
Cc1ccccc1N1CCN(c2ccc(NC(=O)C3CCCCC3C(=O)O)cc2)CC1 (stereo not given) | inconclusive: 23.1 µM [falling, partial curve, poor fit] | –
OC(Cc1ccnc2ccccc12)C(Cl)(Cl)Cl (stereo not given) | active: 18.4 µM | –
OCC1(CCOc2ccccc2)CCN(Cc2nc3ccc(F)cc3[nH]2)CC1 | inconclusive: 23.1 µM [activator, single point] | –
Cc1cc(C)cc(OC(C)C(=O)Nc2nonc2-c2ccc(Br)cc2)c1 (stereo not given) | inconclusive: 29.1 µM [falling, single point] | –
CCN1C(N(C)CCc2c[nH]c3ccccc23)=N[C@@H](c2cccc(C(F)(F)F)c2)C(C(=O)OC)=C1C | inconclusive: 23.1 µM [activator, partial curve, poor fit] | –
O=C(COc1ccccc1)Nc1ncccn1 | inconclusive: 23.1 µM [activator, single point] | –
CN(c1ccc(O)cc1)c1nc(-c2cccs2)cs1 | inconclusive: 23.1 µM [activator, partial curve] | –
Cc1cccc(S(=O)(=O)C(C#N)c2nc3ccccc3nc2N2CCCC2)c1 (stereo not given) | inconclusive: 18.4 µM [falling, partial curve, poor fit] | –
COCc1c(C(=O)Nc2cccc(S(=O)(=O)N3CCCCC3)c2)oc2ccccc12 | inconclusive: 5.8 µM [falling, full curve] | –
Cc1ccc(Cl)cc1N(C)C(=O)Cn1nc(Cc2cccnc2)c2ccccc2c1=O | inconclusive: 25.9 µM [falling, partial curve] | –
Nc1c(-c2nc(-c3cccs3)no2)nnn1-c1ccccc1Cl | inconclusive: 0.461 µM [falling, full curve, poor fit] | –
O=S(=O)(NC1CCCCC1Nc1ccc(Cl)cc1)c1ccccc1 (stereo not given) | inconclusive: 25.9 µM [falling, partial curve, poor fit] | –
S=C(c1ccc2c(c1)OCO2)N1CCN(c2cccc(Cl)c2)CC1 | inconclusive: 7.31 µM [activator, partial curve] | –
CC(=O)c1sc(-c2ccccc2)cc1NS(=O)(=O)c1ccccc1 | – | inactive: -0.386%
CCOc1ccc(NC(=O)CSc2nnc3scc(-c4ccc(Cl)cc4)n23)cc1 | inconclusive: 29.1 µM [falling, single point] | –
Cc1cccc(N(CC(=O)NC2CCCC2)C(=O)c2cc3cc4cccc(C)c4nc3s2)c1C | inconclusive: 29.1 µM [falling, single point] | –
CCCC1CCC(=NNC(=O)OC(C)(C)C)CC1 (stereo not given) | inconclusive: 20.6 µM [activator, single point] | –
COc1ccc(-c2cc(C(=O)Nc3cccnc3)c3ccccc3n2)cc1OC | inconclusive: 5.17 µM [activator, partial curve] | –
COc1ccc(CCN(C(=O)C(F)(F)F)C(C(=O)NC2CCCCC2)c2ccc(C)s2)cc1 (stereo not given) | inconclusive: 32.6 µM [falling, partial curve, poor fit] | –

Reprinted from the results shown, two compounds:
SMILES | Potency | activity change, negative = inhibition
O=C(COc1ccccc1)Nc1ncccn1 | inconclusive: 23.1 µM [activator, single point] | –
CN(c1ccc(O)cc1)c1nc(-c2cccs2)cs1 | inconclusive: 23.1 µM [activator, partial curve] | –
